Measurements from the supplement of paper PMC12819154, “High-throughput peptide-centric local stability assay extends protein–ligand identification to membrane proteins, tissues and bacteria” (Nature Structural & Molecular Biology, 2025).
This is one part of the list. Most entries show no effect beyond the scatter of the controls.

Protein sequences, listed by entry. Tags and fused reporters are not part of them. Lines headed by an entry give the natural chain unless they say otherwise; changes in a name come on top.
UniProt Q9NX18: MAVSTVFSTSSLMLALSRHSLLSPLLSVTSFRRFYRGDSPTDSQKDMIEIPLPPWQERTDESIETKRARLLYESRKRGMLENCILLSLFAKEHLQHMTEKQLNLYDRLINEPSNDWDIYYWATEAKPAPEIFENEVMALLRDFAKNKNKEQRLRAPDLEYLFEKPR
UniProt Q9NZM3: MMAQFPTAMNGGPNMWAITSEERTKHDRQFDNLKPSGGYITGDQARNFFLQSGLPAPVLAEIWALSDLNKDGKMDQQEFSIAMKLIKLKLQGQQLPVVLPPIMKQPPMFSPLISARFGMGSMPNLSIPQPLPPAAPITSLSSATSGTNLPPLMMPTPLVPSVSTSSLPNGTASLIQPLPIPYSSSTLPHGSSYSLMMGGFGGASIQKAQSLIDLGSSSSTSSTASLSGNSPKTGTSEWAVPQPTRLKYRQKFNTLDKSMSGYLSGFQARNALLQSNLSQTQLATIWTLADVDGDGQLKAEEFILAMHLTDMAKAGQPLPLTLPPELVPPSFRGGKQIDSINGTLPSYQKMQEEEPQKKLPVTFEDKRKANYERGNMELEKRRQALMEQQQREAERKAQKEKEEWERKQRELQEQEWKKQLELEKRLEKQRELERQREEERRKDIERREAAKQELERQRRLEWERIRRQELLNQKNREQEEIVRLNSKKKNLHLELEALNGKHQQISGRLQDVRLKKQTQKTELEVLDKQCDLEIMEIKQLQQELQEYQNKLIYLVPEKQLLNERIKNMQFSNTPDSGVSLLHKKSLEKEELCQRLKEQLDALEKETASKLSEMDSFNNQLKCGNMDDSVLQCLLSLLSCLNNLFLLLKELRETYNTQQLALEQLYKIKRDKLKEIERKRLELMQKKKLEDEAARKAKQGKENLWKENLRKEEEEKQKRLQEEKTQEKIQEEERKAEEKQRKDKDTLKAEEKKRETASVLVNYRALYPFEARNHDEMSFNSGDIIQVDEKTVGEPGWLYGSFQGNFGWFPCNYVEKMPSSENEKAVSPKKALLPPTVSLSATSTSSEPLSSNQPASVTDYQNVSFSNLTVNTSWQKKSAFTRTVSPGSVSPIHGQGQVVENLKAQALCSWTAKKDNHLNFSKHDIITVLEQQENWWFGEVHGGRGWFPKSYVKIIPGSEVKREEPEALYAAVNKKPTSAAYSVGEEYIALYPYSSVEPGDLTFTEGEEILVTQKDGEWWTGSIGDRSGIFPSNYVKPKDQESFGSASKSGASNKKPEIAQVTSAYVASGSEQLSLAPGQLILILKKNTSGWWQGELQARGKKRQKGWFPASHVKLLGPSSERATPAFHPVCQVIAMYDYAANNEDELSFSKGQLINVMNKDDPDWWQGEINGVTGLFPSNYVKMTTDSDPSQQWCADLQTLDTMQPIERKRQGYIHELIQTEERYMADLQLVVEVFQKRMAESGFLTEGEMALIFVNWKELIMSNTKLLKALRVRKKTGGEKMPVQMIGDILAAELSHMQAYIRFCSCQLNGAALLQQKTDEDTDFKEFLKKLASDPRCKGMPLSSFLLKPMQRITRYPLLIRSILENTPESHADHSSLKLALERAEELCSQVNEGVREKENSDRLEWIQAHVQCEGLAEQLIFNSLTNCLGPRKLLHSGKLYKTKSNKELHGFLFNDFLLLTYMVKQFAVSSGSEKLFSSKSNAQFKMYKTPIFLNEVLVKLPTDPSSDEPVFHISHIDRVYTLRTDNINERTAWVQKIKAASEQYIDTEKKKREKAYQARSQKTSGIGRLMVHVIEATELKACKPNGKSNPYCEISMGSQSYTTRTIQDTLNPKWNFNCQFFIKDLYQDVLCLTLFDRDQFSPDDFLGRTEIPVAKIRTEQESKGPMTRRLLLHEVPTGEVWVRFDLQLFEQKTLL
UniProt Q9P0K8: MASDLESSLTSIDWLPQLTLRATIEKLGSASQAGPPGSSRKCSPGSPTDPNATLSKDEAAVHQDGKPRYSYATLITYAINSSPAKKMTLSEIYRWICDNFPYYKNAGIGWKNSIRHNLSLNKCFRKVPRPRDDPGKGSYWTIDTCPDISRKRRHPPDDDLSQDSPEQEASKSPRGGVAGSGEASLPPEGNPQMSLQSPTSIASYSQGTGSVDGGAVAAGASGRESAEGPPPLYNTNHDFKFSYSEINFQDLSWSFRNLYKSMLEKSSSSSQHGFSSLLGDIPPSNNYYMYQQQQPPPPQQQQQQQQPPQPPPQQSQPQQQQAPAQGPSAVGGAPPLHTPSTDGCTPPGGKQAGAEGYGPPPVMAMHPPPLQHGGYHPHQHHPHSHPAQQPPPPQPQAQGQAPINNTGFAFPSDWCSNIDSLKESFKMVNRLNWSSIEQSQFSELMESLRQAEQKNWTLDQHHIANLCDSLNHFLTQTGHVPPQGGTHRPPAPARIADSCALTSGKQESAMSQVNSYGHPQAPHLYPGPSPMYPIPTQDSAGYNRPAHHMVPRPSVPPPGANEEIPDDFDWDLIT
UniProt Q9UG01, whole entry: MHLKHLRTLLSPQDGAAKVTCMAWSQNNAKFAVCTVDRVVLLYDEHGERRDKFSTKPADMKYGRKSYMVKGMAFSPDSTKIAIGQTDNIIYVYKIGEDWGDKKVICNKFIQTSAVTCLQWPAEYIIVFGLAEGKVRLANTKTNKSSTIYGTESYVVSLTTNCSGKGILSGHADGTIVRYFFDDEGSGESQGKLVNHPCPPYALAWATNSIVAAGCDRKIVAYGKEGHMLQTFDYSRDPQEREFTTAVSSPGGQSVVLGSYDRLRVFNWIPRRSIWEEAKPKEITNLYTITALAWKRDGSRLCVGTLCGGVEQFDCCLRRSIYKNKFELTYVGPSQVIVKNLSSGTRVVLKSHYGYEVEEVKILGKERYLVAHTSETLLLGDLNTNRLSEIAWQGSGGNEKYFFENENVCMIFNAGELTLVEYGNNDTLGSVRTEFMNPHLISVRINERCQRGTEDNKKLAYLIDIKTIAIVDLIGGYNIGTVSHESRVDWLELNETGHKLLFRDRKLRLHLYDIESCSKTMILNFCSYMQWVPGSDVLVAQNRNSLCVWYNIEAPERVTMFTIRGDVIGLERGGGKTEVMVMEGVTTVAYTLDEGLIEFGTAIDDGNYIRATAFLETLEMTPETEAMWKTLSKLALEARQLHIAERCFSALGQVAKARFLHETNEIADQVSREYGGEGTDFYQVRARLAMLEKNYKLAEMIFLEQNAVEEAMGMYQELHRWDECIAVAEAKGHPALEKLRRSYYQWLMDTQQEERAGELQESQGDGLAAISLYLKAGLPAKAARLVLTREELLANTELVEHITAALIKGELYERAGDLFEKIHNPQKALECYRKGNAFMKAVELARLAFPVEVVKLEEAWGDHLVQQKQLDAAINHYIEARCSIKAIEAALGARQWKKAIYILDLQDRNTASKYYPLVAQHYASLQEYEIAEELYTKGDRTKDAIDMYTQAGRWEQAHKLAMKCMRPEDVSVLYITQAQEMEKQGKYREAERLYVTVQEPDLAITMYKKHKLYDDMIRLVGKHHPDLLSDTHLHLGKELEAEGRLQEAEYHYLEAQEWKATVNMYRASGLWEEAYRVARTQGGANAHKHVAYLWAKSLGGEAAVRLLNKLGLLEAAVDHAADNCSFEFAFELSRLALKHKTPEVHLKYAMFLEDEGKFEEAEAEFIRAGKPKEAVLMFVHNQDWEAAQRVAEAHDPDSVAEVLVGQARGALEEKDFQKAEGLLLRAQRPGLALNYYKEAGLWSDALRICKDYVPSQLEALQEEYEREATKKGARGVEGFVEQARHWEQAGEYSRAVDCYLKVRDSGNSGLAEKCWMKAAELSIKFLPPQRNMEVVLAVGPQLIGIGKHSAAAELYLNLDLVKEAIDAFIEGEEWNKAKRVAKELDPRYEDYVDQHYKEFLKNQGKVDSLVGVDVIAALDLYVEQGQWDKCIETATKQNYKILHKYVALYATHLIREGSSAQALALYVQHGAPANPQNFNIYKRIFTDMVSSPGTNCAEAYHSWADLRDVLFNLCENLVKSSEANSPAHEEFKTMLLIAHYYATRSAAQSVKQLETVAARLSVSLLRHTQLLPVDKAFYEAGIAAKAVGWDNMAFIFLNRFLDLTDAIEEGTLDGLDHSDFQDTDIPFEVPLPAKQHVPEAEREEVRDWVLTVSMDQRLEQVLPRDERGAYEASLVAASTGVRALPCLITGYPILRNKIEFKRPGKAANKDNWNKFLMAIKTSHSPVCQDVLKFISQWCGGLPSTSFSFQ
UniProt Q9UBP9: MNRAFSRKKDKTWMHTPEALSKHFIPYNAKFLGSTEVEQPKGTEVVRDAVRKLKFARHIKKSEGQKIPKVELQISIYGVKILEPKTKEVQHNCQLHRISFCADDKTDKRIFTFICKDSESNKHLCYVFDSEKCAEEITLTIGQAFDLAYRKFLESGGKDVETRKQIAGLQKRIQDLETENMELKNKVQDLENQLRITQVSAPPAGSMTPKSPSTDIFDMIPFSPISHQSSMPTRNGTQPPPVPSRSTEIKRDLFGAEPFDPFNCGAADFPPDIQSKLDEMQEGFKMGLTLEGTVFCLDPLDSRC
UniProt Q9P2E5: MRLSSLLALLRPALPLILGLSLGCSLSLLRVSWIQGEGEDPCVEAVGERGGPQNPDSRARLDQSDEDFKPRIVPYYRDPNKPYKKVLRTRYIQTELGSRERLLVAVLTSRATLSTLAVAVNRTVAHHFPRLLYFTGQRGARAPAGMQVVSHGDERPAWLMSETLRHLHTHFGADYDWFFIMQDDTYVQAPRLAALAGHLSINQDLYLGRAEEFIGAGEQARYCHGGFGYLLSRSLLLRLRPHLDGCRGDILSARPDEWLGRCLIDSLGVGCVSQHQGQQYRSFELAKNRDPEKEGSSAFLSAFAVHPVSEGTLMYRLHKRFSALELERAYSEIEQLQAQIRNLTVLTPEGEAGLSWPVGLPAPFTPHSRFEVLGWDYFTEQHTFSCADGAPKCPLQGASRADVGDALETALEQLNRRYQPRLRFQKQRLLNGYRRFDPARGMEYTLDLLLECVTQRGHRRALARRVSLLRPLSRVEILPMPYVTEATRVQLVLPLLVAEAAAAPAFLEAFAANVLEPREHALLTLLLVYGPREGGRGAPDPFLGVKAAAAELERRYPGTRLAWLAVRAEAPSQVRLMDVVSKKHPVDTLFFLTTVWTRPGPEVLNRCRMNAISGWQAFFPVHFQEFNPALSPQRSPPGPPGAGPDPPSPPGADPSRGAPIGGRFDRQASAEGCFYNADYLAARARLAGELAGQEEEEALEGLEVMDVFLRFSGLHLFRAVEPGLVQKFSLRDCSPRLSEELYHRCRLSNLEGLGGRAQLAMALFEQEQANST
UniProt Q9P2W9: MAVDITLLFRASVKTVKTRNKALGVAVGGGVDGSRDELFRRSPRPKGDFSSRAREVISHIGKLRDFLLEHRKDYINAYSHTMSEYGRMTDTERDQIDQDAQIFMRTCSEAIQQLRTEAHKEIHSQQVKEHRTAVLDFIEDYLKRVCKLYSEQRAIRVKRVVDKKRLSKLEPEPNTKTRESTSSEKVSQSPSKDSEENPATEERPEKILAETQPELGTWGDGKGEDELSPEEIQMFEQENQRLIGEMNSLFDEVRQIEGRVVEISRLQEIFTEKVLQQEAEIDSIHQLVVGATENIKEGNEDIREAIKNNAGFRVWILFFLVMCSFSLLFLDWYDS
UniProt Q9UFG5: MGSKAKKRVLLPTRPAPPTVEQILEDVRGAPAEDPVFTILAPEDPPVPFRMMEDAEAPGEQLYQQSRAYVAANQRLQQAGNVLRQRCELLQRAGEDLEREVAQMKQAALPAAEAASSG
UniProt Q9UC06: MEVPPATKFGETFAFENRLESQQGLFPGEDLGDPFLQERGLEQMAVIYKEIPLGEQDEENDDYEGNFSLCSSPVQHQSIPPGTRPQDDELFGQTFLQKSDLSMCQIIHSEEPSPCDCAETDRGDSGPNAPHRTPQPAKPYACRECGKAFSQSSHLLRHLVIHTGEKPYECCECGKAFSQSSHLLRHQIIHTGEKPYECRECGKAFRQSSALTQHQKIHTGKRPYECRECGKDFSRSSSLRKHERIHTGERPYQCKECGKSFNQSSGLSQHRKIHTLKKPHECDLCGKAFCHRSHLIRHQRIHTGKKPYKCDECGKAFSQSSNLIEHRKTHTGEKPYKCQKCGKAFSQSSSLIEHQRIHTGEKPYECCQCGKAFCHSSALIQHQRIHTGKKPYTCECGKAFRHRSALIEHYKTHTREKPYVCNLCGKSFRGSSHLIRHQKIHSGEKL
UniProt Q9NXR1: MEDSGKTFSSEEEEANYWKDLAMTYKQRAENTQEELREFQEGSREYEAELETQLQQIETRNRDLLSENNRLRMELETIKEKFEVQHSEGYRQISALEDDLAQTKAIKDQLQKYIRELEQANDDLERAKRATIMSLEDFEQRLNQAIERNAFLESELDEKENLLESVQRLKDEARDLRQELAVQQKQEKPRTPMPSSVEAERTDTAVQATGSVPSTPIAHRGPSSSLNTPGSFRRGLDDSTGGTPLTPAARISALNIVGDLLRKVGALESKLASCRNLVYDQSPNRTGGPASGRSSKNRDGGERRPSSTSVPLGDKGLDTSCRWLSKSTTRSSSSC

Compound: Cc1nc(Nc2ncc(C(=O)Nc3c(C)cccc3Cl)s2)cc(N2CCN(CCO)CC2)n1 [dasatinib]
Experiment: log2 fold change of tryptic peptide abundance, ligand vs vehicle (limited proteolysis) (log2 ratio); higher = more trypsin-susceptible (destabilized)
Conditions: ligand concentration: 5 uM; sample: K562 cleared lysate

| Target | log2 fold change |
| --- | --- |
| UniProt Q9NYV4 (peptide sequence: DSKPIALKEEIVTPK, peptide start residue: 502) | -0.115 |
| DNAJB12 (peptide sequence: GYTAEQVAAVKR, peptide start residue: 93) (UniProt Q9NXW2) | 0.203 |
| THUMPD1 (peptide sequence: SDQNNTAEGK, peptide start residue: 295) (UniProt Q9NXG2) | 0.169 |
| SDHAF2 (peptide sequence: APDLEYLFEKPR, peptide start residue: 155) (UniProt Q9NX18) | 0.215 |
| UniProt Q9NYL2 (peptide sequence: LLLLEEEDLKDMGIVSK, peptide start residue: 378) | 0.4 |
| UVRAG (peptide sequence: HHTSSAIPVPK, peptide start residue: 469) (UniProt Q9P2Y5) | -0.585 |
| ITSN2 (peptide sequence: KKNLHLELEALNGK, peptide start residue: 488) (UniProt Q9NZM3) | -0.316 |
| FOXJ2 (peptide sequence: ESAEGPPPLYNTNHDFK, peptide start residue: 224) (UniProt Q9P0K8) | -0.071 |
| IFT172 (peptide sequence: ASGLWEEAYR, peptide start residue: 1067) (UniProt Q9UG01) | 0.176 |
| UniProt Q9UBC1 (peptide sequence: HDAPALCLLLR, peptide start residue: 76) | -0.36 |
| GULP1 (peptide sequence: VELQISIYGVK, peptide start residue: 70) (UniProt Q9UBP9) | 0.956 |
| UniProt Q9NXE8 (peptide sequence: NSDRNQGLQGPLTAEQK, peptide start residue: 233) | -0.34 |
| UniProt Q9UC07 (peptide sequence: DHTGEKPYACK, peptide start residue: 187) | 1.44 |
| ARHGEF12 (peptide sequence: KVEESYTILCQR, peptide start residue: 1519) (UniProt Q9NZN5) | -0.397 |
| MRPL39 (peptide sequence: KSILALVDGQPWDMYKPLTK, peptide start residue: 102) (UniProt Q9NYK5) | 0.474 |
| UniProt Q9UDV7 (peptide sequence: KVDAQASQLLNLEGR, peptide start residue: 111) | -0.114 |
| CHPF2 (peptide sequence: YCHGGFGYLLSR, peptide start residue: 222) (UniProt Q9P2E5) | 0.592 |
| GMPR2 (peptide sequence: TVEVPFKGDVEHTIR, peptide start residue: 292) (UniProt Q9P2T1) | 0.21 |
| ALKBH4 (peptide sequence: ELSAEFGPGGR, peptide start residue: 272) (UniProt Q9NXW9) | 0.133 |

| Target | log2 fold change |
| --- | --- |
| STX18 (peptide sequence: KDYINAYSHTMSEYGR, peptide start residue: 72) (UniProt Q9P2W9) | 0.225 |
| PARP2 (peptide sequence: VNNGNTAPEDSSPAKK, peptide start residue: 23) (UniProt Q9UGN5) | 0.977 |
| UniProt Q9UEU5 (peptide sequence: TPEEGEKQSQC, peptide start residue: 106) | 0.0881 |
| LIMD1 (peptide sequence: ADYFGACVKCSK, peptide start residue: 466) (UniProt Q9UGP4) | 0.251 |
| NDUFA13 (peptide sequence: IALLPLLQAETDRR, peptide start residue: 69) (UniProt Q9P0J0) | -0.259 |
| UniProt Q9NYF5 (peptide sequence: SNDMPEVVQLR, peptide start residue: 258) | -0.083 |
| LIMA1 (peptide sequence: SEISENTDASGKIEK, peptide start residue: 175) (UniProt Q9UHB6) | 0.202 |
| POGK (peptide sequence: RYDLSLR, peptide start residue: 316) (UniProt Q9P215) | 0.303 |
| C19orf25 (peptide sequence: AGEDLEREVAQMK, peptide start residue: 93) (UniProt Q9UFG5) | -0.385 |
| ADPRHL2 (peptide sequence: ALVQSLLAK, peptide start residue: 84) (UniProt Q9NX46) | 0.125 |
| UXT (peptide sequence: AHIHMLLEGLR, peptide start residue: 133) (UniProt Q9UBK9) | -0.308 |
| SWAP70 (peptide sequence: DKVAHHEGLIR, peptide start residue: 536) (UniProt Q9UH65) | 1.92 |
| CEP72 (peptide sequence: LCGEIVELK, peptide start residue: 564) (UniProt Q9P209) | 0.351 |
| UniProt Q9UC06 (peptide sequence: FGETFAFENR, peptide start residue: 9) | 0.1 |
| KCMF1 (peptide sequence: QSMESER, peptide start residue: 307) (UniProt Q9P0J7) | 0.145 |
| TJP2 (peptide sequence: SIDQDYER, peptide start residue: 244) (UniProt Q9UDY2) | -0.139 |
| B3GNT2 (peptide sequence: AKDLFIGDVIHNAGPHR, peptide start residue: 267) (UniProt Q9NY97) | 0.148 |
| SLAIN2 (peptide sequence: LSLQGHPTDLQTSNVKNEEK, peptide start residue: 390) (UniProt Q9P270) | -0.413 |
| NDE1 (peptide sequence: DLRQELAVQQK, peptide start residue: 175) (UniProt Q9NXR1) | 0.731 |

3 records picked at random from those above:

| Target | log2 fold change |
| --- | --- |
| TJP2 (peptide sequence: SIDQDYER, peptide start residue: 244) (UniProt Q9UDY2) | -0.139 |
| UniProt Q9NYF5 (peptide sequence: SNDMPEVVQLR, peptide start residue: 258) | -0.083 |
| ADPRHL2 (peptide sequence: ALVQSLLAK, peptide start residue: 84) (UniProt Q9NX46) | 0.125 |
